Experimental data from paper PMC9241672.
Protein sequences can lack the tags named with them.

Assays:
[1] = molecular target: T1, His-ArgR2 (Lactiplantibacillus plantarum AR195) (UniProt Q8VL04); assay: BLI; conditions: ArgR2 256-4097 nM; BLI: 10 mM HEPES pH 8.0, 2 mM MgCl2, 0.1 mM EDTA, 200 mM KCl, 1 per mille (w/v) BSA and 2 per mille (v/v) Tween 20 in protein buffer; temperature not stated; recombinant protein; residues 1-152; protein details: His tag (pET30a); label: biotin (universal primer S1); probe letters rebuilt from the primers and the genome
T1 sequence (looked up): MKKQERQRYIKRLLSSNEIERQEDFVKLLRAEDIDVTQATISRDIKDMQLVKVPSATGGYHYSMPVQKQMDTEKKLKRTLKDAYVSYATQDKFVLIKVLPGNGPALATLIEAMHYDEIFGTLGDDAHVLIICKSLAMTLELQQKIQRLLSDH

[2] = molecular target: T1, His-ArgR2 (Lactiplantibacillus plantarum AR195); assay: EMSA; conditions: ArgR2 0.0425-0.17 mg/mL, saturated at 0.085 mg/mL; EMSA: Beyotime chemiluminescent kit, buffer not stated; recombinant protein; residues 1-152; protein details: His tag (pET30a); label: biotin (universal primer S1); probe letters rebuilt from the primers and the genome

AGCCAGTGGCGATAAGGCACAATGAACGGTTGCAGTATTAAGAAAATAAATCCAATTATAATGATGCGCATGTAAGCTAAGAAGGGCTGACGTGCGTTTTTATTAGCTAATTAAAGTTGGAACCACACTTTAGTTAGTTATAATTGTGAACTAACACACATGTATAAAAGCTACAGTTTAATCGTCGTAAGACTAGTACTTTTATCCATTACTCAAATAAATTTAGTGGGTTAATATGAAAGCGTAGTCAAGATAAATGACCGGTCATCAGGTTAATGTTTACTGATAAGTTAATAAAATCACAATTTCATCGAGGAGGACGCAAAACATCCTTATCGCCACTGGCT (double strand) [cla promoter probe]
Kd [1]: < 1 pM
binding result [2]: binds
